For part of these data: Where a protein sequence is shown, tags need not be part of it.
Columns and labels:
[1] = target: T1, Dm-piRMT (ssRNA 2'-O-methyltransferase) (Drosophila melanogaster) (UniProt Q7K175); experiment: activity assay; settings: purified recombinant protein
T1 sequence (limits assumed): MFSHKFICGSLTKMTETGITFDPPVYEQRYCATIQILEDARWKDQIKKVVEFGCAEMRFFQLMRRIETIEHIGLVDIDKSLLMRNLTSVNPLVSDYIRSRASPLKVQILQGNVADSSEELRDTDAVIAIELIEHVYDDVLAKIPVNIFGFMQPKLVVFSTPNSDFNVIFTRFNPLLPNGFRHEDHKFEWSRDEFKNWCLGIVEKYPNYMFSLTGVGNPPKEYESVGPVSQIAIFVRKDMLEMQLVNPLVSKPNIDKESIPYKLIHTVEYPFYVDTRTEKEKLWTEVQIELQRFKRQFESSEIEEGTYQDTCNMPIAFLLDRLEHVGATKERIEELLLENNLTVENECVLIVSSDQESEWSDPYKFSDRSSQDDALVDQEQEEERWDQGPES

The chains behind the UniProt entries cited, without tags or fusion partners. Where a name states a change or a piece, a line headed by the entry shows the natural chain unless it says otherwise.
UniProt Q5T8I9: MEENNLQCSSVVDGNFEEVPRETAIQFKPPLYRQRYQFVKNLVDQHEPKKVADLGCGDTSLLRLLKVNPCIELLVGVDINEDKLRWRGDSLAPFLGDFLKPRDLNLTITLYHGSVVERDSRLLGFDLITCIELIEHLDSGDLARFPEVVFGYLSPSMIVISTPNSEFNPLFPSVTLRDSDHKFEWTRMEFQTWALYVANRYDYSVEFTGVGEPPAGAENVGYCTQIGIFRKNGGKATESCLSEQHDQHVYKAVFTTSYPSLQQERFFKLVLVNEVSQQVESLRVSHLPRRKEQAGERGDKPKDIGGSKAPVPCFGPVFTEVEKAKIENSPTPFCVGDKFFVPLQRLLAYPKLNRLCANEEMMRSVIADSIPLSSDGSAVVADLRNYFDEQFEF

[2] = target: Hs-piRMT (ssRNA 2'-O-methyltransferase) (Homo sapiens) (UniProt Q5T8I9); experiment: activity assay; settings: 3' methylation by NaIO4/beta-elimination and PAGE; 10 mM Co2+ or Co3+ required, AdoMet, pH 7.4, 37 C; also Ado-6-amine and Ado-6-azide; purified recombinant protein; label: 32P

Sequence	activity on this sequence ([1]; 3' methylation by NaIO4/beta-elimination and PAGE, 10 mM Co2+ or Co3+ required, AdoMet, pH 7.4, 37 C, also Ado-6-amine, Ado-6-azide, Ado-biotin, label: 32P)	activity on this sequence [2]	activity on this sequence ([1]; Co2+, 37 C, AdoMet or synthetic cofactors)
UUCGCUUGCAGAGAGAAAUCAC [miR173.1]	active	active	–
UUAACGCUUGCAGAGAGAAUCAC [siR173.1]	–	–	active
